Isolated mass data for one substance are collected here from patent publication EP0402313 (dated 1990).

Strings that start with PEPTIDE1 are HELM notation: dots part the residues, brackets hold end groups and non-standard residues.

This series in a line: Boc solid-phase peptide synthesis; Boc-Trp(CHO)-OCH2-Pam resin; DCCD/HOBt. Particulars: whole synthesis, scale 0.5 mmol.

On to “PEPTIDE1{C.S.C.S.S.L.[Nle].D.K.E.C.V.Y.F.C.H.L.D.I.I.W}$PEPTIDE1,PEPTIDE1,1:R3-15:R3|PEPTIDE1,PEPTIDE1,3:R3-11:R3$$$V2.0”, for which the isolated mass is 33 mg.
